Test results: patent publication US12343350B2, “Istaroxime-containing intravenous formulation for the treatment of acute heart failure (AHF)” (Windtree Therapeutics, Inc., priority 2019, dated 2025)
Where a name gives a salt, the structure may show the parent alone. For at least one compound, name, drawing or mass did not settle the structure.

The chains behind the UniProt entries cited, without tags or fusion partners. Where a name states a change or a piece, a line headed by the entry shows the natural chain unless it says otherwise.
UniProt O46674: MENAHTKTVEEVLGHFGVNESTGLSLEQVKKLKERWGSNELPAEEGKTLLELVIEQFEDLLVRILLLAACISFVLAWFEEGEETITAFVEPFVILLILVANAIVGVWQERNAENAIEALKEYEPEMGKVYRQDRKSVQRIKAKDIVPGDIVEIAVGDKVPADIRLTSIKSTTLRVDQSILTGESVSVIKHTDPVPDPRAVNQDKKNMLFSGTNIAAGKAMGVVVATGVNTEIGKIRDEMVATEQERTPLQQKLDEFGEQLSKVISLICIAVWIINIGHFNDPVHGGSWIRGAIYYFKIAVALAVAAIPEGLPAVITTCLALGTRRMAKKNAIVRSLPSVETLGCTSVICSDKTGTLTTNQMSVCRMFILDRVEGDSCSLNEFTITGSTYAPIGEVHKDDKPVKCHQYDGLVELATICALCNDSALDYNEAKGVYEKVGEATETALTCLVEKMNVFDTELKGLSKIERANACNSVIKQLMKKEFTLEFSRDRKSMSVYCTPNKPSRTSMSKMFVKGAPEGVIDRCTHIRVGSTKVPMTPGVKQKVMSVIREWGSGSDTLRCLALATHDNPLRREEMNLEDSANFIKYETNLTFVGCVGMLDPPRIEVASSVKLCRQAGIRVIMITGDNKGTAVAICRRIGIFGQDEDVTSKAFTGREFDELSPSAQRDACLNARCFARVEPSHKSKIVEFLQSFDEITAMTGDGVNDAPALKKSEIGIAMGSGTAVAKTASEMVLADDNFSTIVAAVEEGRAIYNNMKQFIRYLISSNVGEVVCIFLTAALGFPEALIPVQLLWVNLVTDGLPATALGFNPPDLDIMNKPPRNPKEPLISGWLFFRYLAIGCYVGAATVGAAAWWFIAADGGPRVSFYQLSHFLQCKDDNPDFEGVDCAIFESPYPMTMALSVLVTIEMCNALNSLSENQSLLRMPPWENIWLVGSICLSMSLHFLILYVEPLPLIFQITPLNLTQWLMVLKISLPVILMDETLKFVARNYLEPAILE

Legend:
SERCA2a [1] = target: T1, SERCA2a (Canis lupus familiaris (Dog) (Canis familiaris), UniProt O46674); test: SERCA2a ATPase activity in heart-derived SR microsomes from normal dog; assay type: biochemical; conditions: for Vmax: normal dog SR microsomes, mean ± SD; for SERCA2a activity stimulation: normal dog SR vesicles, 0.1 nM and 10 nM
Method: (§1) Male beagle dogs were used for obtaining cardiac tissues for SERCA2a-enriched sarcoplasmic reticulum preparations. Healthy dogs were utilized for obtaining the data in Table 3. Chronic heart failure was induced in dogs by multiple intracoronary microembolizations with polystyrene latex microspheres ([…], Polysciences, Warrington, PA, USA) as described previously (see Sabbah H N et al., Am J Physiol. 1991; 260:H1379-84). The experiments were conducted in the General Pharmacology Department of Sigma-Tau, Rome, Italy.
Left ventricle tissues were dissected, homogenized in 4 volumes of 10 mM NaHCO3 (pH 7), 1 mM PMSF, 10 μg/ml Aprotinin and Leupeptin and centrifuged at 12.000 g for 15 minutes, as described in Nediani C. et al. (J Biol Chem. 1996; 271:19066-73). Supernatants were filtered and centrifuged at 100.000 g for 30 min. Contractile proteins were extracted by suspending the pellets with 0.6 M KCl, 30 mM Histidine, pH 7 and further centrifugation at 100.000 g for 30 min. Final pellets were reconstituted with 0.3 M Sucrose, 30 mM Histidine, pH 7.
SERCA2a activity was measured in vitro as ^32P-ATP hydrolysis at different Ca2^+ concentrations (100 to 3000 nM) in the absence and presence of the tested compounds as described previously (see Micheletti R. et al., Am J Card 2007; 99:24A-32A). Increasing concentrations of each compound (from 0.05 to 300 nM) were pre-incubated with 2 μg of microsomes for 5 min at 4° C. in 80 μl of a solution containing 100 mM KCl, 5 mM MgCl2, 1 μM A23187, 20 mM Tris, pH 7.5. Then, 20 μl of 5 mM Tris-ATP containing 50 nCi of ^32P-ATP (3-10 Ci/mmol, Perkin Elmer) was added. The ATP hydrolysis was continued for 15 min at 37° C. and was stopped by acidification with 100 μl of 20% v/v ice-cold perchloric acid. ^32P was separated by centrifugation with activated charcoal (Norit A, SERVA) and the radioactivity was measured. SERCA2a-dependent activity was identified as the portion of total hydrolytic activity inhibited by 10 μM cyclopiazonic acid (see Seidler N W. et al., J Biol Chem. 1989; 264:17816-23).
Dose-response curves were fitted by using a sigmoidal curve fitting software and the maximal velocity (Vmax) activity and the Kd Ca2^+ were calculated (Synergy Software KaleidaGraph 3.6).
The compounds disclosed herein were tested on SERCA2a ATPase activity prepared from normal and failing dogs in a range of concentrations from […]. The effect has been expressed as % increase of the Vmax activity of a control sample run in the absence of compound. Data are mean & SD, where n indicates the number of experiments.

SERCA2a [2] = target: T1, SERCA2a; test: SERCA2a ATPase activity in SR preparations from failing dog; assay type: biochemical; conditions: data not shown
Method: as §1, with “Italy. […]” for “Italy.”
SERCA2a activity was measured in vitro as ^32P-ATP hydrolysis at different Ca2^+ concentrations (100 to 3000 nM) in the absence and presence of the tested compounds as described previously (see Micheletti R. et al., Am J Card 2007; 99:24A-32A). […] The ATP hydrolysis was continued for 15 min at 37° C. and was stopped by acidification with 100 μl of 20% v/v ice-cold perchloric acid. ^32P was separated by centrifugation with activated charcoal (Norit A, SERVA) and the radioactivity was measured. […]
Dose-response curves were fitted by using a sigmoidal curve fitting software and the maximal velocity (Vmax) activity and the Kd Ca2^+ were calculated (Synergy Software KaleidaGraph 3.6). […]

STZ diabetic rats = test: Haemodynamics in streptozotocin (STZ) diabetic rats (echocardiography 2M-Doppler-Tissue Doppler); assay type: in vivo, rat; conditions: PST 3093 administration
Method: Sprague Dawley male rats (150-175 g) were made diabetic by a single injection into the tail vein of a solution of streptozotocin (STZ, 50 mg/kg, Sigma-Aldrich), freshly prepared in 0.1 M sodium citrate buffer, pH 4.5. Control rats received citrate buffer. Fasting glycaemia was measured after 1 week and rats with values greater than 400 mg/dl were considered diabetic.
Eight to nine weeks after STZ injection, rats were submitted to transthoracic echocardiographic and Doppler evaluation performed under pentobarbital anesthesia. […] Fractional shortening was calculated as FS=(LVEDD-LVESD)/LVEDD. Relative wall thickness was calculated as PWTd+IVSTd/LVEDD.
Mitral inflow was measured by pulsed Doppler at the tips of mitral leaflets from an apical 4-chamber view to obtain early and late filling velocities (E, A) and deceleration time of early filling velocity (DT). The deceleration slope was calculated as E/DT ratio. The mitral deceleration index was calculated as DT/E ratio.
Tissue Doppler Imaging (TDI) was evaluated from the apical 4-chamber view to record septal mitral annular movements, i.e., peak myocardial systolic (s′) and early and late diastolic velocity (e′ and a′). […]

**Q.** For C[C@]12CCC(=NOCCN)CC1[C@H](O)CC1C2CC[C@]2(C)C(=O)CCC12 (stereo partly drawn) [PST 2915, (E,Z)-3-(2-Aminoethoxyimino)-6beta-hydroxyandrostan-17-one hydrochloride], which Vmax (SERCA2a [1]; 0.1 nM compound) is on record?
**A.** 1.464 ± 0.184 μmol/min/mg prot

**Q.** What about the Vmax (SERCA2a [1]; 10 nM compound) of the same compound?
**A.** 1.526 ± 0.038 μmol/min/mg prot

**Q.** And the SERCA2a activity stimulation (SERCA2a [1])?
**A.** significantly stimulated

**Q.** And the SERCA2a activation (SERCA2a [2])?
**A.** particularly evident

**Q.** With C[C@]12CCC(=NOCC(=O)O)CC1[C@H](O)CC1C2CC[C@]2(C)C(=O)CCC12 (stereo partly drawn) [PST 3093, (E,Z)-[(6-beta-hydroxy-17-oxoandrostan-3-ylidene)amino]oxyacetic acid] as the compound, how does the Vmax (SERCA2a [1]; 0.1 nM compound) read?
**A.** 1.641 ± 0.194 μmol/min/mg prot

**Q.** And the Vmax (SERCA2a [1]; 10 nM compound)?
**A.** 1.556 ± 0.106 μmol/min/mg prot

**Q.** And the SERCA2a activity stimulation (SERCA2a [1])?
**A.** significantly stimulated

**Q.** What about the “Effect on diastolic function” value (STZ diabetic rats) of the same compound?
**A.** ameliorated diastolic function

**Q.** And the SERCA2a activation (SERCA2a [2])?
**A.** particularly evident
